Reference: patent US20200283728A1, “MODIFIED T CELLS AND USES THEREOF” (MUSC FOUNDATION FOR RESEARCH DEVELOPMENT, priority 2017, published 2020)
For at least one compound, name, drawing or mass did not settle the structure.

Assays:
[1] = system: ICOS-activated Th17 cells; test: Memory and regulatory phenotype of ICOS-stimulated Th17 cells expanded with inhibitors (flow cytometry); assay type: cell-based, mouse
Description: (§1) Expansion of Th17 cells with Wnt/β-catenin and PI3K inhibitors in vitro: TRP-1 splenocytes were activated with irradiated (10Gy) C57BL/6 splenocytes pulsed with TRP-1 peptide (1 μM) added at a 5:1 ratio in 24-well plates (1 mL media containing 1.5×10^6 cells/well). TRP-1 splenocytes were co-stimulated with soluble ICOS agonist (Clone 398.4A, BioLegend) and polarized toward Th17 phenotype as describe above. For in vitro expansion from day 0 of culture 10 μM Ly294002 (Cayman Chemical) or 10 μM CAL-101 (Selleckchem) and/or 60 μM indomethacin (Sigma-Aldrich) was added. Also dimethylosulfoxide 0.01% (Sigma-Aldrich) was added as a control. Th17 cultures were also supplemented with hrIL-2 (100 IU/mL) and rmIL-23 ([…]; R&D). Medium, including cytokines and inhibitors was refreshed every 2-3 days.
(§2) Surface staining of Th17 cells was performed with anti-CD4-APCCy7, anti-Vβ14-FITC (BD Biosciences) anti-CD62L-APC, anti-CD44-PerCPCy5.5, anti-CCR6-PE, anti-CD69-PECy7, anti-CCR7-PE, anti-CD27-PE, anti-CD28-PerCPCy5.5, anti-ICOS-PE and anti-CD25-PECy7/FITC (BioLegend) and viability stain (Invitrogen) on day 8. For all intracellular staining of cytokines (anti-IL-17 PerCPCy5.5, anti-IFN-γ-v450, anti-IL-2-FITC, anti-IL-21-APC, anti-IL-22-PE, anti-TNF-α-FITC; BioLegend) and transcription factors (anti-RORγt-APC, anti-cMaf-PerCPCy5.5, anti-STAT-3-PE, anti-FoxP3-FITC/PE, anti-T-bet-v450; eBiosciences), cells were stimulated for 4-5 h with 50 ng/mL PMA and 750 ng/mL ionomycin (Sigma-Aldrich). Additional antibodies used include: CD127-PECy7 clone A019D5, CD25-APCCy7 clone BC96, CD4-APCCy7 OKT4, CD45RO-APC clone UCHL1, CD62L-FITC clone DREG-56, CD8-PerCPCy5.5 clone SKI, TIM3-PE clone F38-2E2 (biolegend); CCR7-PECy7 clone CCR7, CD8-V450 clone RPA-T8, PD1-FITC clone M1H4, (BD Biosciences). Antibodies used for mouse cell analysis: CD127-PE/V450 clone A7R34, CD25-FITC clone 7D4, CD44-PerCPCy5.5/FITC clone IM7, CD69-PECy7 clone HI.2F3, CD8-PerCPCy5.5 clone 53-6.7, CD8-PECy7 clone YTS156.7.7, PD1-PerCPCy5.5 clone 29F.1A12 V[…]13-PE/APC clone MR12-3/MR12-4 (Biolegend), CD4-APCCy7 clone RM4-5, CD62L-APC clone MEL-14, KLRG1-APC/V450 clone 2F1 (BD). After 1 h, Monensin (BioLegend) was added per manufacturer's instructions. After surface staining, intracellular staining for cytokines and transcription factors was performed using Fixation and Permeabilization buffers (BioLegend) and Foxp3 Staining Buffers (eBioscience), respectively. Flow cytometry acquisition was performed on a FACSVerse or Accuri (BD Bioscience). Data were analyzed with FlowJo software (TreeStar). For experiments with sorted cells, CD8^+Vb13^+ T cells were sorted from pmel-1 cultures using Dynabeads untouched mouse CD8^+ T cell kit (Invitrogen) and a FACSAria cell sorting machine (BD Biosciences).

[2] = system: ICOS-activated Th17 cells; test: Cytokine production of ICOS-stimulated TRP-1 Th17 cells expanded with inhibitors (intracellular FACS); assay type: cell-based, mouse; settings: 8 days of expansion, vs un-treated Th17 cells
Description: as §1, §2

human T cells = test: RNA sequencing of CAL-101 or AKTi treated human T cells; assay type: cell-based
Description: Library preparation: mRNA libraries were prepared in triplicate from each donor using the TruSeq RNA V2 kit(Illumina). Cleaved RNA fragments were copied into first strand cDNA then underwent second strand cDNA synthesis. End repair of cDNA fragments, single ‘A’ base addition and ligation to the adapter followed. The product was then purified and enriched with PCR to create the final cDNA library. Transcriptome sequencing: cDNA libraries were clonally clustered onto the sequencing flow cell using the c-BOT (Illumina) Cluster Generation Station and Hiseq Rapid Paired-End Cluster Kit v2 (Illumina). Clustered flow cells were sequenced on the Illumina HiSeq2500 Sequencing System using the Hiseq Rapid SBS Kit V2 (Illumina). Analysis: Differential gene expression analysis contrasting the factors representing different treatment protocols (CAL101 vs Vehicle; or AKTi vs Vehicle) was performed by running kallisto on the raw paired-end RNA sequencing data (in FASTQ format) to estimate transcript-level read counts based on Ensembl GRCh37 cDNA assembly for each sample (NCBI GEO database Accession Number: GSE101497). Estimated transcript-level counts were aggregated across official gene symbols using the tximport package with mapping provided by the biomaRt utility. To better isolate the effects of drug treatments from the effects that can be attributed to differences in donors, we used both factors in our modeling of the gene-level count levels and used limma voom package to fit our model following their published standard protocol (Law et al., 2014).

[3] = CAL-101 10 μM, Indo 60 μM, Ly294002 10 μM

## CC[C@H](Nc1ncnc2[nH]cnc12)c1nc2cccc(F)c2c(=O)n1-c1ccccc1 [CAL-101]
[1]; cultured 8 days and upon secondary stimulation in vitro
  FoxP3 and CD25 expression: dramatically decreased
[1]; day 8 in vitro
  central memory phenotype (CD44^highCD62L^high): supported the generation of central memory Th17 cells
[1]; effector memory markers
  CXCR3 and CCR6 expression: less
[1]; in vitro
  CD62L expression: dramatically increased
[1]; vs control Th17 cells
  CCR7 and CD28 expression: elevated
[2]; [3]
  IFN-γ production: reduced
  IL-17A production: reduced
[2]
  IL-2 production: no impact
  IL-22 production: no impact
  TNF-α production: no impact
Human T cells
  CD127 (IL7r) transcript: uniquely induced high
  KLF4 transcript: dramatically down regulated
  Lef1 and Tcf7 transcripts: markedly increased compared to AKTi cells
  Tbx21, Eomes and Nfatc4 transcripts: increased
  cyclin D1 (CCND1) transcript: upregulated uniquely
Human T cells; compared to AKTi or vehicle-treated T cells
  CD62L (Sell) and CCR7 transcripts: up-regulation
Human T cells; compared to control
  p21 (CDKN1A) transcript: downregulated
Human T cells; vs vehicle
  Bcl2, stradb (ILPIP) and Ldlrap1 transcripts: high
  effector transcripts Fos, JunB, Gzmb, Ifng: down-regulated
